The target of assay [1] is SIRPγ, overexpressed in A549 cells (human) (UniProt Q9P1W8). Put plainly: co-IP; A549 cells overexpressing vector, SIRPγ or SIRPγ deletion mutants; immunoprecipitation and immunoblot for SIRPγ, PP2A and MST1. (Immunoblotting shows a protein as a band on a membrane.)
The target in assay [2] is signal regulatory protein γ (SIRPγ) (human (endogenous in A549 and H1975)) (UniProt Q9P1W8). Put plainly: co-IP; endogenous proteins precipitated from A549 and H1975 cell lysates with specific antibodies (anti-SIRPγ, anti-MST1, anti-PP2A), immunoblot.
Assay [3] deals with protein phosphatase 2A (PP2A) (human (endogenous in A549 and H1975)) (UniProt P67775). The assay is described as above.

Chains of the proteins cited; added tags and fusions are not shown. Lines headed by an entry give the natural chain unless they say otherwise; changes in a name come on top. Residues count along the entry.
UniProt Q9P1W8, residues 29-387: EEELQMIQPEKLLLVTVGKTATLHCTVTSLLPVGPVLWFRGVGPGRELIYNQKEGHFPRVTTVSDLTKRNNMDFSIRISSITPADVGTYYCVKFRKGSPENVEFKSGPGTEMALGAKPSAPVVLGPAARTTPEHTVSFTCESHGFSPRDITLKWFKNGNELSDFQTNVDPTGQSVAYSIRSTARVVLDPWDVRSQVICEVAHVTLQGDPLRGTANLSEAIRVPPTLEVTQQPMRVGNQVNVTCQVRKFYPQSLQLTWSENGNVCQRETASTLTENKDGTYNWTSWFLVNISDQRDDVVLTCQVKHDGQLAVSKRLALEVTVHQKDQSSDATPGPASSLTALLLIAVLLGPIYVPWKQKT
UniProt P67775: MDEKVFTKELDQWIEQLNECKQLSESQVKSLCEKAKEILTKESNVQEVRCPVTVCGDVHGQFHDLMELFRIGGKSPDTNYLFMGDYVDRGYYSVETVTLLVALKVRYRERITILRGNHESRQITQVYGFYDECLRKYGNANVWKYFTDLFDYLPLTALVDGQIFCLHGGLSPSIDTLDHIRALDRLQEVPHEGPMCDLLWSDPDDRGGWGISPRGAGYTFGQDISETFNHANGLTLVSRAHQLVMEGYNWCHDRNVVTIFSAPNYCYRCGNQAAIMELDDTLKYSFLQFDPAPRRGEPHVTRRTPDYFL

Results are given in words; binding and its absence hold for the method and conditions named. In cells and extracts the contact can be indirect. A result given as binding can be weak or reduced; the word gives no strength.

With “protein phosphatase 2A (PP2A) (from UniProt P67775) (enzyme)”, the binding entry in assay [1] and in assay [2] was “binds” each time.
As for “signal regulatory protein γ (SIRPγ) (from UniProt Q9P1W8 29-387)”, the binding result in assay [3] is listed as “binds”.

Values taken from PMC8884909.
